Laboratory results: PubChem BioAssay AID540256 (National Center for Advancing Translational Sciences (NCATS), 2011)
Screen size: about 300,000 compounds; about 3,700 (1.2%) were called active. This list was built around the results that the source calls inconclusive (neither active nor inactive); the mix of calls is not that of the screen. Calls follow the shape of the full dose curve; tested in HEK293 cells. A potency beside an inconclusive call is a rough fit, not a confirmed value.

Assay: qHTS for Inhibitors of binding or entry into cells for Lassa Virus; also: nearly all actives have a fitted effect of over 50% in size
Conditions: Lassa virus pseudotype entry inhibition, cell reporter; activity change, negative = inhibition: at 37.9 µM (top of the series) unless noted
% is scaled to controls: 0 for no effect and ±100 for the full control effect; potency is read from the fitted curve at half-maximal effect.

Structure (SMILES)	Potency	activity change, negative = inhibition
CC(=O)Nc1cccc(C(=O)NC(C)c2ccc(-n3ccnc3)cc2)c1 (configuration not stated)	inconclusive: 12.6 µM [activator, partial curve, poor fit]	–
CC(=O)c1sc(NC(=O)c2ccc(C)cc2)nc1C	inconclusive: 3.66 µM [activator, single point]	–
O=C(NC1(C(=O)NC2CCCC2)CCCCC1)c1ccc2c(c1)OCO2	inconclusive: 11.2 µM [activator, partial curve, poor fit]	–
COc1ccc(C2C3=C(CC(C)(C)CC3=O)N(C)C3=C2C(=O)CC(C)(C)C3)cc1OC	inconclusive: 3.55 µM [inhibitor, single point]	–
CSc1ccccc1NC(=S)N/N=C/c1cccn1Cc1ccc(F)cc1	inconclusive: 35.5 µM [inhibitor, partial curve, poor fit]	–
CC1CN(C2CCN(C(=O)c3ccccc3)CC2)CC(C)O1 (configuration not stated)	–	inactive: 7.74%
Cc1ccc(C(=O)COC(=O)c2ccc(O)cc2)cc1	inconclusive: 17.8 µM [inhibitor, single point]	–
Nc1c(C(=O)Nc2ccc(Cl)c(C(F)(F)F)c2)sc2nc(-c3ccncc3)ccc12	inconclusive: 15.8 µM [activator, single point]	–
COCc1ccc(CN2CCc3c([nH]c4ccccc34)C2CC(C)C)o1 (configuration not stated)	inconclusive: 15.8 µM [inhibitor, single point]	–
COc1ccc(C(=O)COC(=O)CCN2C(=O)C3C4C=CC(C5CC45)C3C2=O)cc1 (configuration not stated)	inconclusive: 1 µM [inhibitor, partial curve, poor fit]	–
CCOC(=O)C1CCN(C(=O)c2ccc3c(c2)sc2nc(-c4ccccc4)cn23)CC1	–	inactive: 15.2% [at 46.1 µM]
N#C/C(C(=O)NCc1ccccc1)=C1\SC(CCO)C(=O)N1c1ccccc1 (configuration not stated)	inconclusive: 16.4 µM [inhibitor, single point]	–
Cc1cc(C)c(C(=O)/C=C/c2ccc(C(C)C)cc2)c(=O)[nH]1	inconclusive: 20 µM [inhibitor, single point]	–
COc1cc(-c2nnc(COc3ccc(Cl)cc3C)o2)cc(OC)c1OC	inconclusive: 35.5 µM [inhibitor, single point]	–
CN(c1ccccc1)S(=O)(=O)c1cccc(NC(=O)c2ccc(=O)[nH]n2)c1	inconclusive: 28.2 µM [inhibitor, single point]	–
CCN(CC)S(=O)(=O)c1ccc2c(c1)c(=O)c(C(=O)NCc1ccc(Cl)cc1)cn2C	inconclusive: 2.82 µM [inhibitor, full curve, poor fit]	–
CCCCNC(=O)c1ccc(N2CCC3(CC2)OCCO3)c([N+](=O)[O-])c1	inconclusive: 14.6 µM [inhibitor, partial curve, poor fit]	–
COc1cc(SC)ccc1C(=O)Nc1ncc(Cl)cc1Cl	inconclusive: 3.16 µM [activator, partial curve, poor fit]	–
O=C(CSc1nnc(-c2ccccc2O)o1)N1CCc2ccccc2C1	–	inactive: -4.75%
Cc1c(Cl)cccc1NC(=O)CCC(=O)NNC(=O)c1ccco1	–	inactive: -6.2%
O=C(Cn1nc(C(=O)O)c2ccccc2c1=O)c1c[nH]c2ccccc12	–	inactive: 6.62%
CC1(CCc2ccc(O)cc2)NC(=O)NC1=O (configuration not stated)	–	inactive: 11.3%
COc1ccc(OC)c(NC(=O)c2cn3c4c(ccc(Cl)c4c2=O)OC(C)C3)c1 (configuration not stated)	–	inactive: 1.64% [at 46.1 µM]

Reprinted at random: 5 compounds from above.
Structure (SMILES)	Potency	activity change, negative = inhibition
O=C(Cn1nc(C(=O)O)c2ccccc2c1=O)c1c[nH]c2ccccc12	–	inactive: 6.62%
CSc1ccccc1NC(=S)N/N=C/c1cccn1Cc1ccc(F)cc1	inconclusive: 35.5 µM [inhibitor, partial curve, poor fit]	–
CC(=O)Nc1cccc(C(=O)NC(C)c2ccc(-n3ccnc3)cc2)c1 (configuration not stated)	inconclusive: 12.6 µM [activator, partial curve, poor fit]	–
Nc1c(C(=O)Nc2ccc(Cl)c(C(F)(F)F)c2)sc2nc(-c3ccncc3)ccc12	inconclusive: 15.8 µM [activator, single point]	–
Cc1c(Cl)cccc1NC(=O)CCC(=O)NNC(=O)c1ccco1	–	inactive: -6.2%

Continued.

Structure (SMILES)	Potency	activity change, negative = inhibition
COC(=O)c1ccc(N2CCN(S(=O)(=O)c3c(C)cc(C)cc3C)CC2)c([N+](=O)[O-])c1	inconclusive: 0.708 µM [inhibitor, single point]	–
COc1ccc(Cn2cc(C(=O)c3ccc(OC)cc3)c(=O)c3cc4c(cc32)OCCO4)cc1	inconclusive: 22.4 µM [inhibitor, partial curve, poor fit]	–
O=C(Nc1ccc(Cl)cc1)N1CCC(CN2CCCC2)CC1	inconclusive: 28.2 µM [activator, single point]	–
CCC1S/C(=N/N=C/c2ccco2)NC1=O (configuration not stated)	inconclusive: 35.5 µM [activator, partial curve, poor fit]	–
CCC(C(=O)NCC1CCCO1)N(C(=O)c1snc(C(N)=O)c1N)c1ccc(Cl)cc1 (configuration not stated)	inconclusive: 35.5 µM [inhibitor, single point]	–
CCOc1ccc(CC2S/C(=N/c3ccccn3)NC2=O)cc1 (configuration not stated)	inconclusive: 2.59 µM [inhibitor, full curve]	–
Cc1ccc2c(c1)C(c1ccccc1)N(C(=O)c1ccc(OC(C)C)cc1)CC(=O)N2 (configuration not stated)	inconclusive: 10 µM [inhibitor, partial curve, poor fit]	–
O=C(O)c1nn(-c2ccccc2)c(-c2ccccc2)c1C(=O)c1ccccc1	inconclusive: 3.16 µM [activator, partial curve]	–
COc1ccc(S(=O)(=O)N(C(=O)c2ccncc2)c2ccc3oc4c(c3c2)CCCC4)cc1	inconclusive: 6.31 µM [inhibitor, full curve, poor fit]	–
COC(=O)C(N)Cc1ccc(O)c(O)c1 (configuration not stated)	–	inactive: 14.3%
COc1ccc(CCNC(=O)CC(=O)NCCc2ccc(OC)cc2)cc1	inconclusive: 8.91 µM [inhibitor, full curve, poor fit]	–
CCCCOc1ccc(C(=O)NCC2(N3CCN(C)CC3)CCCCC2)cc1	–	inactive: 3.28% [at 46.1 µM]
Cc1ccccc1C(=O)N1CCN(c2ccc(NC(=O)c3ccc4c(c3)OCO4)cc2)CC1	inconclusive: 3.55 µM [inhibitor, partial curve, poor fit]	–
Cc1cc(C)n(C(=O)CCCn2cc([N+](=O)[O-])cn2)n1	–	inactive: 5.89%
Cc1ccc(OC(C)C(=O)Nc2ccccc2C(=O)NCc2cccnc2)cc1C (configuration not stated)	inconclusive: 35.5 µM [inhibitor, single point]	–
Cc1ccc(NC(=S)NCc2ccccc2)cc1[N+](=O)[O-]	active: 15.8 µM	–
O=C(N/N=C/c1ccccn1)c1ccccc1	inconclusive: 35.5 µM [inhibitor, single point]	–
Cc1sc(NC(=O)c2ccco2)c(C(c2cccnc2)N2CCN(C)CC2)c1C (configuration not stated)	inconclusive: 3.66 µM [inhibitor, full curve]	–
C=CCNc1nc(-c2cc3ccccc3o2)cs1	active: 7.94 µM	–
O=C(CCCN1C(=O)/C(=C/c2ccc(F)cc2)SC1=S)NCCCn1ccnc1	–	inactive: -15.6% [at 46.1 µM]
CC(C)CN(C(=O)COC(=O)CCSc1ccc(F)cc1)c1c(N)n(Cc2ccccc2)c(=O)[nH]c1=O	–	inactive: -11.2%
COc1ccc(CC(=O)NC(C)c2nnc(SCC(=O)c3ccc(OC)cc3)n2C)cc1 (configuration not stated)	–	inactive: 3.16%
COC(=O)CS(=O)(=O)c1ccc2c(c1)CC(=O)N2	–	inactive: 12.2%

Structure (SMILES)	Potency	activity change, negative = inhibition
CCOc1ccc(S(=O)(=O)N(C)CC(=O)NCc2ccco2)cc1	inconclusive: 3.16 µM [inhibitor, single point]	–
CC(=O)Nc1ccc(S(=O)(=O)NCc2nnnn2-c2ccc(F)cc2)cc1	inconclusive: 35.5 µM [inhibitor, single point]	–
COc1ccccc1CNC(=O)C(=O)Nc1ccc(C(=O)N2CCC(C)CC2)cc1	inconclusive: 35.5 µM [inhibitor, partial curve, poor fit]	–
COc1ccccc1C(=O)N1CCN(c2cccc(Cl)c2)CC1	inconclusive: 0.891 µM [inhibitor, full curve, poor fit]	–
Cc1ccc(S(=O)(=O)N[C@@H](Cc2ccccc2)C(=O)N2CCC(C(=O)N[C@@H](CC(C)C)C(=O)O)CC2)cc1	inconclusive: 1.78 µM [activator, partial curve, poor fit]	–
COc1ccccc1OCCCn1c(C2CC(=O)N(c3ccccc3Cl)C2)nc2ccccc21 (configuration not stated)	inconclusive: 35.5 µM [inhibitor, single point]	–
CCOC(=O)c1nn(-c2ccc(C)cc2)c(C)c1C(C)=O	–	inactive: -7.43%
Cc1ccccc1NC(=O)CCc1c(C)nn(-c2ccc(N3CCCCC3)nn2)c1C	inconclusive: 12.6 µM [inhibitor, partial curve]	–
Cc1nc(-c2ccc(Cl)cc2)sc1CCNC(=O)c1ccco1	–	inactive: 6% [at 46.1 µM]
S=C(NCCCc1ccccc1)Nc1ccc(Br)cc1	inconclusive: 12.6 µM [inhibitor, partial curve, poor fit]	–
CSc1ncc(CN2CCC(C(=O)Nc3cccc(-c4cscn4)c3)CC2)cn1	inconclusive: 0.316 µM [inhibitor, partial curve, poor fit]	–
Cc1ccc(O)c(-c2ccnc3cc(-c4ccc(Cl)cc4)nn23)c1	–	inactive: 1.84% [at 46.1 µM]
CC(C)/C(=N/Nc1ccccc1[N+](=O)[O-])c1ccccc1	inconclusive: 35.5 µM [inhibitor, single point]	–
O=C(CCCCCNC(=O)N1CCn2c1nc1ccccc12)NCc1ccc(F)cc1	–	inactive: -5.53% [at 46.1 µM]
Cc1ccccc1COC(=O)CNC(=O)c1sc2ccccc2c1Cl	inconclusive: 1.12 µM [inhibitor, full curve]	–
Cc1cccn2c(=O)c(/C=C(\C#N)C(=O)NC3CCS(=O)(=O)C3)c(N3CCC(C)CC3)nc12 (configuration not stated)	–	inactive: -0.0986%
COc1ccccc1CNc1ccc([N+](=O)[O-])cc1C	inconclusive: 35.5 µM [inhibitor, single point]	–
CCOC(=O)C(=Cc1ccc(OCc2ccc([N+](=O)[O-])cc2)c(OC)c1)C(=O)OCC	inconclusive: 6.31 µM [inhibitor, full curve]	–
COc1cc2c3nc4n(c(=O)c3n(CC(=O)NCC3CCCO3)c2cc1OC)CCS4 (configuration not stated)	–	inactive: 13.1%
Cc1ccc(C)c(N2CCN(C(=O)CCCn3ncn4c(cc5occc54)c3=O)CC2)c1	inconclusive: 5.62 µM [activator, single point]	–
CCOc1ccc(CN(C)Cc2cc(=O)oc3c(C)c(C)ccc23)cc1OC	inconclusive: 15.8 µM [inhibitor, partial curve, poor fit]	–
